The list shows a part of the results.

The chains behind the UniProt entries cited, without tags or fusion partners. Where a name states a change or a piece, a line headed by the entry shows the natural chain unless it says otherwise.
UniProt O96011: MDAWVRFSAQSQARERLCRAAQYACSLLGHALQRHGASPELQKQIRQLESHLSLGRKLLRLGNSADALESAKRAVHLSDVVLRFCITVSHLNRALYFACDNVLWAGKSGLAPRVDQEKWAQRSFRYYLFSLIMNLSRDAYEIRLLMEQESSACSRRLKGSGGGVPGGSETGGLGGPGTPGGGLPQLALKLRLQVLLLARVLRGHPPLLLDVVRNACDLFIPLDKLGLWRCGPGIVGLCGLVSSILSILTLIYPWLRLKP
UniProt Q16875: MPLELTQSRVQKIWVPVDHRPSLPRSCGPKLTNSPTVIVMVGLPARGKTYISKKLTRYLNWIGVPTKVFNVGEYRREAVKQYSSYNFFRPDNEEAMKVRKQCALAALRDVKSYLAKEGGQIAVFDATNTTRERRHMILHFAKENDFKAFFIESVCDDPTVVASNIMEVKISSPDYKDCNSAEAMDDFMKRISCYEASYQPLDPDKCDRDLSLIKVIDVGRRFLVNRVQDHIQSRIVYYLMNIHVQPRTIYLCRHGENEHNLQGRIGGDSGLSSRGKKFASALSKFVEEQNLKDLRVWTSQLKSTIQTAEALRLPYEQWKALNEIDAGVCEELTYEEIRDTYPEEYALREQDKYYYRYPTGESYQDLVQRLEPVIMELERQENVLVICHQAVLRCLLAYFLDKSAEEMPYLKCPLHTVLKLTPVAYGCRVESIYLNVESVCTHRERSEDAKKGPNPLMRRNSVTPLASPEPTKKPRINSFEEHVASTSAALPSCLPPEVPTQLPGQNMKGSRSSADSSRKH
UniProt O95613: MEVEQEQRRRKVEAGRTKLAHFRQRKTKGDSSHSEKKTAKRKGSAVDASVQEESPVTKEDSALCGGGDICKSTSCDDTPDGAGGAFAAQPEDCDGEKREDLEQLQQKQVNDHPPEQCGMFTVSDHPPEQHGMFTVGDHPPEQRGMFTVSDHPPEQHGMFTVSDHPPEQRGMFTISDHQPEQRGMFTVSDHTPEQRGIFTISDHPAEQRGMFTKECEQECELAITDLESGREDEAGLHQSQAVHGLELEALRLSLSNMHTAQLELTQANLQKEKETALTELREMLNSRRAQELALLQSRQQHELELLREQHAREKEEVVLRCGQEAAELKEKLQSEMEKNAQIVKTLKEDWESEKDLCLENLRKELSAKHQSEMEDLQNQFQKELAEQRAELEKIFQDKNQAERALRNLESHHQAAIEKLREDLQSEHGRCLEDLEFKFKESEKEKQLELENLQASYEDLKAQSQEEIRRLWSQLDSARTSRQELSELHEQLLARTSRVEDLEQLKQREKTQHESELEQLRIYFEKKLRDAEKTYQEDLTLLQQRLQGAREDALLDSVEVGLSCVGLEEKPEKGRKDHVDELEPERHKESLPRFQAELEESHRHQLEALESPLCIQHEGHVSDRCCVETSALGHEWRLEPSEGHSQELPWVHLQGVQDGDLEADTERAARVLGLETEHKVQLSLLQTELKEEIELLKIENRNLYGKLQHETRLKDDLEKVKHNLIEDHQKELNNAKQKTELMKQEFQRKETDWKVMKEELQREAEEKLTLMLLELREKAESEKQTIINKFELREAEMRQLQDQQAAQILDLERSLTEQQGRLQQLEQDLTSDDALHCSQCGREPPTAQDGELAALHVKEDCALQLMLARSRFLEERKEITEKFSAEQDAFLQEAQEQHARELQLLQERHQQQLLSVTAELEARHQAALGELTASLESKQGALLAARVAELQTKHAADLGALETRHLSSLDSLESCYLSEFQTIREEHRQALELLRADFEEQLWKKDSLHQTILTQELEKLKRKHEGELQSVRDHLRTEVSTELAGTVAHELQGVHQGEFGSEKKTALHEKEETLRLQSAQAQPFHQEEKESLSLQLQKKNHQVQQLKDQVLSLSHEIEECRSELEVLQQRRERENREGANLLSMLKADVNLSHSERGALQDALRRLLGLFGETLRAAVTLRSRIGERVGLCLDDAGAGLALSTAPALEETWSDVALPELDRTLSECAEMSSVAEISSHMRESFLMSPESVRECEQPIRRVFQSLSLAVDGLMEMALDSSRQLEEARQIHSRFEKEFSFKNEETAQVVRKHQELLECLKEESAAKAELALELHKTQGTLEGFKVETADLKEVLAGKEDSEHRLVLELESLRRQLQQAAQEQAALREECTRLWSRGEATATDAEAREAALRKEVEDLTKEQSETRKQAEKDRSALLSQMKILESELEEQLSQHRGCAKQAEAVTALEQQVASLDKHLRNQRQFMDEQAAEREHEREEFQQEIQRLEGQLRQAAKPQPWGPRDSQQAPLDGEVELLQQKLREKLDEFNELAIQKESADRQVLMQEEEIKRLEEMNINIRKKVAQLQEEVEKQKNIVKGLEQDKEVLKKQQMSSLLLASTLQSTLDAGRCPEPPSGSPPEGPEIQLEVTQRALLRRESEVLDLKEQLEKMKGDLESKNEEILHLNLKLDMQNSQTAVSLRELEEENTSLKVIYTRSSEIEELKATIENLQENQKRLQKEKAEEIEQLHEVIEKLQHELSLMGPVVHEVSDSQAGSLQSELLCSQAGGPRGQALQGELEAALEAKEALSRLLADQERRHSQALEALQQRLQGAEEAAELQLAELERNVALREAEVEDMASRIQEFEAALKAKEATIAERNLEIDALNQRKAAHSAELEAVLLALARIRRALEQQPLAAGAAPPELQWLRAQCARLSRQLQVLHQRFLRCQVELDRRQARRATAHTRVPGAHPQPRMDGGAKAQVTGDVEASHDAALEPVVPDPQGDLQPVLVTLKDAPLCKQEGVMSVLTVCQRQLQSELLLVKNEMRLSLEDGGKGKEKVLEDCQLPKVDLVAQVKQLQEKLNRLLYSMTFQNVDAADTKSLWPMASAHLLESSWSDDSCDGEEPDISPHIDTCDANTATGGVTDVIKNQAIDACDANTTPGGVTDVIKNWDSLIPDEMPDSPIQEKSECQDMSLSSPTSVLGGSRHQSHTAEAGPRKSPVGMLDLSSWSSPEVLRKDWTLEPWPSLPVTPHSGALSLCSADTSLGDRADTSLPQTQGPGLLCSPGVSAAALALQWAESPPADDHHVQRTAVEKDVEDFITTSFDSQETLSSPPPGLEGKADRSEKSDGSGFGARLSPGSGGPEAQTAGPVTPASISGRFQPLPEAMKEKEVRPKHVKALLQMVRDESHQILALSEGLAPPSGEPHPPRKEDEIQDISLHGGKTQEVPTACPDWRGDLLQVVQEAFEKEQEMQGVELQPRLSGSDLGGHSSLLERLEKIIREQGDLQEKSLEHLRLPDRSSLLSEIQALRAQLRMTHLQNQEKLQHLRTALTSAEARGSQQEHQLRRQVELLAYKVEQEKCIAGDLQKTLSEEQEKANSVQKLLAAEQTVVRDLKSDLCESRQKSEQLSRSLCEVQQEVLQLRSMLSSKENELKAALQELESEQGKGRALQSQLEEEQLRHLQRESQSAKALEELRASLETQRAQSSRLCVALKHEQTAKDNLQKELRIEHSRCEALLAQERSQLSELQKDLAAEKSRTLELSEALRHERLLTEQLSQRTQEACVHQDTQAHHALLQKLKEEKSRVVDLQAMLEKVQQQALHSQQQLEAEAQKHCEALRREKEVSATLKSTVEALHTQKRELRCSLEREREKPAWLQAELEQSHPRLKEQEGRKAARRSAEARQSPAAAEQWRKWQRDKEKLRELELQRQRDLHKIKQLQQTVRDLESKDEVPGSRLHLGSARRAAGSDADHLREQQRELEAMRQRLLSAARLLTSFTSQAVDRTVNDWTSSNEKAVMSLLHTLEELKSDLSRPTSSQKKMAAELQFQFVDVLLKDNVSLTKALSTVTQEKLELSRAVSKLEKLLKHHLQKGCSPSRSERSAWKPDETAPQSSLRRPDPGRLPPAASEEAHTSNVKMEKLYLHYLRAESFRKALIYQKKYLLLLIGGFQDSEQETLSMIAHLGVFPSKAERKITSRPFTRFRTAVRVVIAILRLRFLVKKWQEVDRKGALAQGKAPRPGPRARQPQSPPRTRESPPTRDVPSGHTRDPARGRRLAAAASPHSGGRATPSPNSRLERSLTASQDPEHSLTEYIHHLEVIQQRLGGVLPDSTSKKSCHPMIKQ
UniProt Q8NCN5: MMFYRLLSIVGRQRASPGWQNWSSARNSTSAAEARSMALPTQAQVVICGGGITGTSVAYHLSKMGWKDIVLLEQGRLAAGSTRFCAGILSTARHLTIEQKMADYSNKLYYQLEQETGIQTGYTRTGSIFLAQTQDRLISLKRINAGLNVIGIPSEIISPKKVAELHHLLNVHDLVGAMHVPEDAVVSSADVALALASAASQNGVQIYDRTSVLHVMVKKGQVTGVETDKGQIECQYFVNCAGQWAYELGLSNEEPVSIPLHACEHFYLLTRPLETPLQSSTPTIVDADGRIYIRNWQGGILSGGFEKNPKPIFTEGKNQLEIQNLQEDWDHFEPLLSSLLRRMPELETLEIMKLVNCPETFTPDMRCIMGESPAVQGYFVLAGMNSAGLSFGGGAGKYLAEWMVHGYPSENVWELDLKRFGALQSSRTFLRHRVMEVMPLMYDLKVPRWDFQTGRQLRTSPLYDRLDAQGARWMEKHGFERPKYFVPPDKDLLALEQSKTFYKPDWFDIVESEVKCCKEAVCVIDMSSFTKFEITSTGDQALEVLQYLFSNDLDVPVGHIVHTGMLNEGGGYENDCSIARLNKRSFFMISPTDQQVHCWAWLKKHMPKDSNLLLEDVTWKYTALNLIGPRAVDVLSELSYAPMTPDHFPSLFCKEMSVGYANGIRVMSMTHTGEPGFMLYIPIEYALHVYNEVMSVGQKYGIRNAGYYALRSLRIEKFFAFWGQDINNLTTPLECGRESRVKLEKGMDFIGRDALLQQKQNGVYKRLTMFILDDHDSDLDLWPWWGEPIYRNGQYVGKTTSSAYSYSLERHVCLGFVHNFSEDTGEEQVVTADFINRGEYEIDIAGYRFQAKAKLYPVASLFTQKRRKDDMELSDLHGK
UniProt Q96KB5: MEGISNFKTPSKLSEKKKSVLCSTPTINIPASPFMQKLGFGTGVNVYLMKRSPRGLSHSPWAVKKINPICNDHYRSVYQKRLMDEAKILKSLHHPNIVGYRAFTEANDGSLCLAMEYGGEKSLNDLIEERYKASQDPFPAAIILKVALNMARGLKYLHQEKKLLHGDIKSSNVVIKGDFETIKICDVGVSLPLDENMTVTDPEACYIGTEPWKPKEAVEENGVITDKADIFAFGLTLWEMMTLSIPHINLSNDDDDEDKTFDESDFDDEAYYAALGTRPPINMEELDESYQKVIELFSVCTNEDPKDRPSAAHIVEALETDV
UniProt P56645: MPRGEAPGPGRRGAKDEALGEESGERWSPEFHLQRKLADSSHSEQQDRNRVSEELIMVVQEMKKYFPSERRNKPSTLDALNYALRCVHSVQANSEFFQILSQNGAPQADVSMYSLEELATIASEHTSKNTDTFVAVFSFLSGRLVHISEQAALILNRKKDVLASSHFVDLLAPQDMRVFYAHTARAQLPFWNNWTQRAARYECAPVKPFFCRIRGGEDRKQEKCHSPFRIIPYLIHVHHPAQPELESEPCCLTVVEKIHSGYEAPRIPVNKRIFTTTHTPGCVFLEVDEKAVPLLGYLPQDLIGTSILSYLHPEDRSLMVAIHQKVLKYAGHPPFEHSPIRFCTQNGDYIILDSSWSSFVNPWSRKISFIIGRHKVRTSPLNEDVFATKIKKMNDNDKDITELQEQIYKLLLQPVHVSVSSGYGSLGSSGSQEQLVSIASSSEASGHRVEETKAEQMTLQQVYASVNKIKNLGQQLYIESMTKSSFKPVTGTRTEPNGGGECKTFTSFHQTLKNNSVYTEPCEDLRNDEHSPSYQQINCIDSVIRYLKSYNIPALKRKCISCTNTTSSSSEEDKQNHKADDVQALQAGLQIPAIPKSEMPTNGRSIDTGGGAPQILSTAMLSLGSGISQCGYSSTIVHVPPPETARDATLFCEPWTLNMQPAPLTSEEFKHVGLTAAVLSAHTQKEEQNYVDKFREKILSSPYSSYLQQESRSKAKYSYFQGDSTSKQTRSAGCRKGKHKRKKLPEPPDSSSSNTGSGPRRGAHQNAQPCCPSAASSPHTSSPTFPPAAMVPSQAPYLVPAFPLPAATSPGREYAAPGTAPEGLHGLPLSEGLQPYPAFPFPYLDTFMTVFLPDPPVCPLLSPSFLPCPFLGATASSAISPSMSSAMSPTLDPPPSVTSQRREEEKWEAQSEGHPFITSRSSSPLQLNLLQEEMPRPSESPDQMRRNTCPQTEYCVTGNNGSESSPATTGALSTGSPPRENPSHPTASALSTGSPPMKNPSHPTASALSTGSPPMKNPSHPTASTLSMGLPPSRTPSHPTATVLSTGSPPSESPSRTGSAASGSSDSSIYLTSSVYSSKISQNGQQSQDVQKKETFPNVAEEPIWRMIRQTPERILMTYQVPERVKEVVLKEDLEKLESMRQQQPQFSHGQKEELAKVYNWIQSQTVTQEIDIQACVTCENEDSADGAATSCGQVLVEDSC

Compound in the test: C1=CC=C(C=C1)[C@H](COC2=CC3=C(C=C2)NC(=O)N3)NC(=O)C4=CC=CN(C4=O)CC5=CC(=C(C=C5)F)F
As to the kind of experiment: log2 fold change, soluble protein after heating vs DMSO (PISA); higher = thermal stabilisation; K562 lysate, 10 uM; active = over 0.2 and 3.5 SD of the protein, either way, in both replicates (recomputed). The procedure, abridged: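 Log-two fold change in thermal stability relative to solvent controls is reported from duplicates. For each sample, crude K562 extract from dounce-homogenised pellets in PBS pH 7.4 with 1 mM MgCl2, at 1 mg/mL protein, was treated with 10 μM compound for 30 min. Aliquots heated for 3 min across 48°C-58°C were pooled, brought to 0.5% NP-40 at 4°C and cleared at 21,000xg for 90 min. The supernatant was quantified by TMTpro 16plex LC-MS/MS with channel sums equalised.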
For the target PCCA (UniProt P05165), the log2 fold change was inactive: -0.013.

For PEX11B (UniProt O96011), the log2 fold change is inactive: 0.047.

For PFKFB3 isoform 4 (UniProt Q16875), the log2 fold change was inactive: -0.04. The figure for PCNT (UniProt O95613) is inactive: 0.035; for PEBP1 (UniProt P30086) it is inactive: 0.021; for PARPBP (UniProt Q9NWS1) it is inactive: 0.111.

With PCBP1 (UniProt Q15365), the log2 fold change was inactive: -0.003. As for PDPR (UniProt Q8NCN5), the figure is inactive: 0.044. As for PCF11 (UniProt O94913), the figure is inactive: -0.135. Regarding PDIA6 isoform 2 (UniProt Q15084), the log2 fold change was inactive: 0.049. The figure for PDAP1 (UniProt Q13442) is inactive: 0.004; for PBK (UniProt Q96KB5) it is inactive: -0.002; for PCBP2 (UniProt H3BRU6) it is inactive: 0.166. In the case of PER3 isoform 2 (UniProt P56645), the log2 fold change was inactive: 0.007. The figure for PELP1 (UniProt Q8IZL8) is inactive: -0.009; for PDCD6IP (UniProt Q8WUM4) it is inactive: -0.077; for PDLIM7 (UniProt Q9NR12) it is inactive: 0.009. Take PEX14 (UniProt O75381): the log2 fold change is inactive: 0.055. As for PEX16 isoform 2 (UniProt Q9Y5Y5), the figure is inactive: -0.072; as for PCYT1A (UniProt P49585), inactive: 0.006. As for PEX13 (UniProt Q92968), the figure is inactive: -0.137; as for PAXBP1 (UniProt Q9Y5B6), inactive: -0.004; as for PDLIM1 (UniProt O00151), inactive: 0.065.

For the origin of these results see the supplement of paper PMC10849652.
